Laboratory results: PubChem BioAssay AID1347076 (National Center for Advancing Translational Sciences (NCATS), 2019)
Among all 400,000 compounds or so, about 13,000 (3.2%) were called active. Inconclusive results, whose numbers are uncertain, are shown with a selection of clear calls. The call rests on the fitted dose curve; in most records, active means well fitted cell-killing curve with a large enough effect; inconclusive means small, poorly fitted or top-dose-only effect, or effect the other way; inactive means flat fitted curve, though single readings scatter. Potencies beside an inconclusive call are fits to weak or partial responses and may not hold up.

Assay: qHTS assay for MDR1-selective chemotherapeutics: Primary screen using the drug-selected MDR subline cells KB-V1; further: nearly all actives have a fitted effect of over 60% in size
Conditions: KB-V1 MDR cells viability, CellTiter-Glo, 72 h; series mostly up to 46.1 µM
How it was run: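 Readout: CellTiter-Glo luminescence, 10 min after addition. Cells: KB-V1 MDR subline, 72 h at 37 degrees C with compound. Analysis: corrected, normalized data fitted to concentration-effect curves.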
Potency means the concentration at half of the fitted maximal effect.

| Structure (SMILES) | Potency |
| --- | --- |
| CCOC(=O)c1c(C)n(C)c2ccc(OCC(O)Cn3nc(C)c(Br)c3C)cc12 (stereo not given) | inconclusive: 23.1 µM [cytotoxic, partial curve, poor fit] |
| CC(=O)Nc1ccc(S(=O)(=O)N(C)CC(=O)OCC(=O)Nc2cccnc2Cl)cc1 | inactive |
| O=C(c1cccc(Cl)c1)N1CCC(=O)N(C(COCc2cccc(Cl)c2)Cc2ccccc2)CC1 (stereo not given) | inconclusive: 25.9 µM [cytotoxic, partial curve] |
| CCc1cccc(-n2nnc(S(=O)(=O)c3ccc(OC)cc3)c2C)c1 | inconclusive: 20.6 µM [cytotoxic, single point] |
| O=C(NCc1ccccc1)[C@@H]1CCCN1C(=O)[C@@H]1CCCN1C(=O)c1cccc2ccccc12 | inactive |
| Clc1cccc(-c2sc(Nc3ccccc3)n[n+]2-c2ccccc2)c1Cl | inactive |
| CN(C)CCCN(C(=O)CCc1ccccc1)c1nc2ccc(Br)cc2s1 | active: 23.1 µM |
| COCCn1c(C)cc(O)c(C(c2ccccc2F)N2CCN(c3ccccc3)CC2)c1=O (stereo not given) | inconclusive: 20.6 µM [rising, single point] |
| COc1ccc(Cl)cc1NC(=S)NCc1ccccn1 | inconclusive: 20.6 µM [cytotoxic, single point] |
| COc1ccccc1CCNC(=O)C(=O)NCC(c1cccnc1)N1CCN(c2ccccc2)CC1 (stereo not given) | inactive |
| Cn1c(CS(=O)Cc2c(Cl)cccc2Cl)nnc1SCc1c(Cl)cccc1Cl (stereo not given) | active: 5.8 µM |
| Cc1cc(=O)n(C)c(=O)n1CCCCCOc1cccc([N+](=O)[O-])c1 | active: 8.2 µM |
| O=S(=O)(c1ccc2oc3ccccc3c2c1)N1CCOCC1 | active: 16.4 µM |
| Cc1cccc(N2CCN(C(=O)C(NS(=O)(=O)c3cccs3)c3ccccc3)CC2)c1C (stereo not given) | inconclusive: 18.4 µM [cytotoxic, single point] |
| O=C(NCc1cccnc1)C1CC(c2cccc(Br)c2)=NO1 (stereo not given) | inactive |
| O=C(C#Cc1ccccc1)Nc1ccccc1F | inconclusive: 23.1 µM [cytotoxic, single point] |
| Cc1ccccc1Cn1nc(C)c(NC(=O)c2cc3nc(-c4ccco4)cc(C(F)(F)F)n3n2)c1C | inconclusive: 32.6 µM [cytotoxic, partial curve, poor fit] |
| N#Cc1ccc(C(=O)Nc2cccc3ncccc23)c(F)c1 | inconclusive: 25.9 µM [cytotoxic, single point] |
| Cc1cc(C)c2nc(N3CCCC(C(=O)N4CCN(c5ncccn5)CC4)C3)sc2c1 (stereo not given) | active: 10.3 µM |
| NC1=NC[C@H](Cc2ccc(O)cc2)N1CCC12CC3CC(CC(C3)C1)C2 | inactive |

Arranged by length of the SMILES (ascending): some entries from above.

| Structure (SMILES) | Potency |
| --- | --- |
| O=C(NCc1cccnc1)C1CC(c2cccc(Br)c2)=NO1 (stereo not given) | inactive |
| NC1=NC[C@H](Cc2ccc(O)cc2)N1CCC12CC3CC(CC(C3)C1)C2 | inactive |
| O=C(NCc1ccccc1)[C@@H]1CCCN1C(=O)[C@@H]1CCCN1C(=O)c1cccc2ccccc12 | inactive |
